From patent US20240409935A1, “Atg8ylation coordinates stress granule formation and mTOR inactivation in response to lysosomal damage” (priority 2023, published 2024) come the findings set out here.

Amino acid sequences for entries named in this document (tags omitted). Residues count along the entry.
UniProt Q8WUM4, residues 362-702: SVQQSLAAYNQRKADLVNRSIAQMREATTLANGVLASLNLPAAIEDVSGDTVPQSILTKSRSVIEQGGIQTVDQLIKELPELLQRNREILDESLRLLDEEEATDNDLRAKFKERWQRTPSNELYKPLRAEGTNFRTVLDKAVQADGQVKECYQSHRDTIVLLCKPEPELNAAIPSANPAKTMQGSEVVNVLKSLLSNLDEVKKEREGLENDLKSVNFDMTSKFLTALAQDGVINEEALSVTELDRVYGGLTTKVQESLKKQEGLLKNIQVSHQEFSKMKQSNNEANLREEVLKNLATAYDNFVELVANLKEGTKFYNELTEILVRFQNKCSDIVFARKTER

In the experiment the target is FLAG-tagged V domain of ALIX (UniProt Q8WUM4). Put plainly: co-IP with anti-FLAG from HEK293T cells expressing FLAG tagged ALIX constructs and Myc-PKR.

No constants are given. Whether binding was seen depends on the method and setting. Binding seen in cells or lysates may run through a third protein. Some entries that bind do so weakly or less than the wild type.

B1: endogenous PACT (protein, UniProt O75569 1-313, looked up)
chain: MSQSRHRAEAPPLEREDSGTFSLGKMITAKPGKTPIQVLHEYGMKTKNIPVYECERSDVQIHVPTFTFRVTVGDITCTGEGTSKKLAKHRAAEAAINILKANASICFAVPDPLMPDPSKQPKNQLNPIGSLQELAIHHGWRLPEYTLSQEGGPAHKREYTTICRLESFMETGKGASKKQAKRNAAEKFLAKFSNISPENHISLTNVVGHSLGCTWHSLRNSPGEKINLLKRSLLSIPNTDYIQLLSEIAKEQGFNITYLDIDELSANGQYQCLAELSTSPITVCHGSGISCGNAQSDAAHNALQYLKIIAERK
With B1, the binding result was “binds”.
